In publication PMC10442235:
These are yes or no findings as the source states them, for the method shown. In cells and extracts the contact can be indirect. Some results given as binding are weak or reduced against the parent protein; the word gives no strength. Sequences can lack the tags named with a protein.

T1: ProtA-TEV-tagged Syo1 K74E/K76E/R118E (S. cerevisiae) (UniProt Q07395)
T1 sequence: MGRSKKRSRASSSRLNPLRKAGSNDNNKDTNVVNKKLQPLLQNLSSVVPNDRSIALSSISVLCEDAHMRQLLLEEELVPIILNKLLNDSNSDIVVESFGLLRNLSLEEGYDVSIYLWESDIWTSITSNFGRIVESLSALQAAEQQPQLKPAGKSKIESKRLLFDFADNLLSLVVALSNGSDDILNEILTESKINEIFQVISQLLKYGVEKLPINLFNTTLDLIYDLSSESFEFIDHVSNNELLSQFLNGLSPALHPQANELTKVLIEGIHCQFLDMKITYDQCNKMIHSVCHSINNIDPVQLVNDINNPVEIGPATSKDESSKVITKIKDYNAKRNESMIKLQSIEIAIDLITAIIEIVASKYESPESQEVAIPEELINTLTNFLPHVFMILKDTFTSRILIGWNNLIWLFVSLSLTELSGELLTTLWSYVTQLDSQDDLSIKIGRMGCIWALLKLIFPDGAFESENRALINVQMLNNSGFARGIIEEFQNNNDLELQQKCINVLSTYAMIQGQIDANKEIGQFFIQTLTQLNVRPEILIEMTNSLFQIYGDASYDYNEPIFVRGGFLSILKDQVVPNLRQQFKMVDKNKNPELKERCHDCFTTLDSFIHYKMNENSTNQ

T2: ProtA-TEV-tagged scSyo1 (S. cerevisiae) (UniProt Q07395)
T2 sequence: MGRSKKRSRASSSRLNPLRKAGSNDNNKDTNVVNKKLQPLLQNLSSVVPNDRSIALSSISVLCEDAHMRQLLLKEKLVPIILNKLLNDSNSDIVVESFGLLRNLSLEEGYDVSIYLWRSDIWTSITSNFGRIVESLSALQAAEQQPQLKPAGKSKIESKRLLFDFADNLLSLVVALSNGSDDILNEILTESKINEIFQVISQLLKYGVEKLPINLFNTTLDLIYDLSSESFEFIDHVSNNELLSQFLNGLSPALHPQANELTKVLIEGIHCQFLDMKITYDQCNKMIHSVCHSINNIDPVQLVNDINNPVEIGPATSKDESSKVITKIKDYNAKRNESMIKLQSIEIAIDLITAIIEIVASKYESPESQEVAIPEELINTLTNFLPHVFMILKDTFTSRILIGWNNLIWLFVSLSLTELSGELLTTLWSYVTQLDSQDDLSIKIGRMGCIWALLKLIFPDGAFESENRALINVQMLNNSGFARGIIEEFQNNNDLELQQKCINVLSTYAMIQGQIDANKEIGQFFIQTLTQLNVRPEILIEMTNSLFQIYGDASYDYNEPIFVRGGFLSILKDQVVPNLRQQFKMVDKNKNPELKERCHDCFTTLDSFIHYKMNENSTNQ


What was measured:
[1] = molecular target: T1, ProtA-TEV-tagged Syo1 K74E/K76E/R118E (S. cerevisiae); test: co-IP; split-tag affinity purification of overexpressed ProtA-TEV-tagged Syo1 or Syo1-AB with FLAG-tagged uL18 or uL18 G169S from yeast; final eluate by SDS-PAGE, Coomassie
[2] = molecular target: T2, ProtA-TEV-tagged scSyo1 (S. cerevisiae); test: as above

Row | binding [1] | binding [2] | Binder
1 | binds | binds | FLAG-tagged scuL18 (protein, UniProt P26321 1-297) MAFQKDAKSSAYSSRFQTPFRRRREGKTDYYQRKRLVTQHKAKYNTPKYRLVVRFTNKDIICQIISSTITGDVVLAAAYSHELPRYGITHGLTNWAAAYATGLLIARRTLQKLGLDETYKGVEEVEGEYELTEAVEDGPRPFKVFLDIGLQRTTTGARVFGALKGASDGGLYVPHSENRFPGWDFETEEIDPELLRSYIFGGHVSQYMEELADDDEERFSELFKGYLADDIDADSLEDIYTSAHEAIRADPAFKPTEKKFTKEQYAAESKKYRQTKLSKEERAARVAAKIAALAGQQ
2 | binds | binds | FLAG-tagged scuL18 G169S (protein, UniProt P26321 1-297) MAFQKDAKSSAYSSRFQTPFRRRREGKTDYYQRKRLVTQHKAKYNTPKYRLVVRFTNKDIICQIISSTITGDVVLAAAYSHELPRYGITHGLTNWAAAYATGLLIARRTLQKLGLDETYKGVEEVEGEYELTEAVEDGPRPFKVFLDIGLQRTTTGARVFGALKGASDSGLYVPHSENRFPGWDFETEEIDPELLRSYIFGGHVSQYMEELADDDEERFSELFKGYLADDIDADSLEDIYTSAHEAIRADPAFKPTEKKFTKEQYAAESKKYRQTKLSKEERAARVAAKIAALAGQQ
